Structures are written as SMILES. In brackets after ≈: the same amount, converted by molar mass.

Our source for the MIC values is ChEMBL document CHEMBL3046637, “Synthesis of new series of pyrazolo[4,3-d]pyrimidin-7-ones and pyrido[2,3-d]pyrimidin-4-ones for their bacterial and cyclin-dependent kinases (CDKs) inhibitory activities” (Med Chem Res, 2011).

The subject of this experiment is Escherichia coli. Put plainly: Antimicrobial activity against Escherichia coli NCTC 10418 by two-fold serial dilution technique. In kind it is functional.

Compound `CC1(C)S[C@@H]2[C@H](NC(=O)[C@H](N)c3ccccc3)C(=O)N2[C@H]1C(=O)O` [AMPICILLIN] came in with an MIC of 7.81 µg/mL (≈ 22.4 µM).

A word on the MIC: it is the lowest concentration that inhibits growth of the organism.
